PMC11043371

Sequences of proteins named here, by UniProt entry; tags and fusion partners are left off.
UniProt P12956: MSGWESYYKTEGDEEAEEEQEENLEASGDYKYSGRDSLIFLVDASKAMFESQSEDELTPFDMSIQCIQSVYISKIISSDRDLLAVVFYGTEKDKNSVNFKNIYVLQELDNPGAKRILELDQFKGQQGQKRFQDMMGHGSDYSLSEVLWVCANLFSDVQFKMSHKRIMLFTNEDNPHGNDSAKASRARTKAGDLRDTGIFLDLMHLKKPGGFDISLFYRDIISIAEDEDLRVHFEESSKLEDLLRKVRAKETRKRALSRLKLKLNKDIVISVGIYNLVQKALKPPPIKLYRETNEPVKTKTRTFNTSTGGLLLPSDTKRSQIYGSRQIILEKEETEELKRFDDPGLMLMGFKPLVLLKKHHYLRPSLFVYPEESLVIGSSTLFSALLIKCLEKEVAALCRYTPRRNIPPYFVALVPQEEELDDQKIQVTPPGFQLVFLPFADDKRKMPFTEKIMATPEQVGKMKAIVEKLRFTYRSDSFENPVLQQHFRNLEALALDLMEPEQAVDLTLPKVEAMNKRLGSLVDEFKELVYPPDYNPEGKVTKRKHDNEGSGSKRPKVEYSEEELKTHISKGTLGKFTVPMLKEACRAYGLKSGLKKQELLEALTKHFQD
UniProt P13010: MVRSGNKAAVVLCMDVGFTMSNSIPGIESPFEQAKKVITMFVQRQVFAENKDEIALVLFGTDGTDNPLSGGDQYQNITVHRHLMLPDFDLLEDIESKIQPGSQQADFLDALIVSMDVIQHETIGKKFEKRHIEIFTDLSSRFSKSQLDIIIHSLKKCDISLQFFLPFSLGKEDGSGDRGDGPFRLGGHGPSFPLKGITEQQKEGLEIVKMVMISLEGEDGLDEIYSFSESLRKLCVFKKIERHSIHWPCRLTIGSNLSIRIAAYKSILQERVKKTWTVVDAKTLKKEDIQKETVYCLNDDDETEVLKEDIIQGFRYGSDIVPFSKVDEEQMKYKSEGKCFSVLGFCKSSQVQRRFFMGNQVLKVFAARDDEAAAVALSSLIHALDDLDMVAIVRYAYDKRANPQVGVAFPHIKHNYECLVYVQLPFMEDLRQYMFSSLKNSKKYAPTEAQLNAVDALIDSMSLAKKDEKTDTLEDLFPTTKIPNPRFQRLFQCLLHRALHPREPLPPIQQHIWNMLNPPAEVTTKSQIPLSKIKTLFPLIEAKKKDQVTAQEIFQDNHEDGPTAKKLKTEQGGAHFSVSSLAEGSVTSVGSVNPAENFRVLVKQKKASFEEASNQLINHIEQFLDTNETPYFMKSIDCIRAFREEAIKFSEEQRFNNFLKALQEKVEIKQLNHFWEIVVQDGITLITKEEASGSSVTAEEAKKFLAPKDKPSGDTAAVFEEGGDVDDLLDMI

Biological target: T1, Ferroptosis suppressor protein 1 (human (endogenous in HEK 293T)) (UniProt Q9BRQ8)
T1 sequence: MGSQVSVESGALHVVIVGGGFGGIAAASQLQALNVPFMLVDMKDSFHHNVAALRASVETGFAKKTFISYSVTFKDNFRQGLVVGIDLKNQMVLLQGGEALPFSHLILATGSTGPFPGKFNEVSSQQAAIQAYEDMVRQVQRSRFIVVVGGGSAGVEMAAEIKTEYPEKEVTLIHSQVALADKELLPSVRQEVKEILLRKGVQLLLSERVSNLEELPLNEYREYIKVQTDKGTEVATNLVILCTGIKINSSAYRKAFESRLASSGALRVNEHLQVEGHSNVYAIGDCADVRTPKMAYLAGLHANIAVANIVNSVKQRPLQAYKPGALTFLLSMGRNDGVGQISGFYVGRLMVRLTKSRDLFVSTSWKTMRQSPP
Assay: affinity purification with mass spectrometry; Co-IP with anti-FSP1 antibody from HEK 293T lysate (IP lysis buffer, protein A/G magnetic beads, 4 °C), then mass spectrometry

Row | Substance | binding
1 | Ku70 (from UniProt P12956 1-609) | binds
2 | Ku80 (from UniProt P13010 1-732) | binds

These are yes or no findings as the source states them, for the method shown. In cells and extracts the contact can be indirect. These calls come from enrichment with a bait or labelling near it, and not all partners need be listed.
